# Data source: PubChem BioAssay AID1224829 (NIAID, 2016)
# Aim: 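Follow-up of TLR4-NF-kappaB regulators using six separate siRNAs for each gene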 (follow-up of hits)
# Cell system: mouse RAW264.7 G9 macrophage reporter cells
# Knock-down reagent: single siRNA against mouse genes, 100 nM
# Duration: 2 days of siRNA knock-down, then 40 min of LPS before fixing
# Treatment: LPS (Salmonella minnesota R595) at 10 ng/ml
# Read-out: 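High-content images after 40 min LPS exposure; GFP-p65 nucleus to surrounding ring signal ratio, normalised to plate median and non-targeting control wells, expressed as z-score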
# Direction: p65 translocation z-score and gene median z-score, per vendor: higher = more nuclear NF-kappaB p65 after LPS
# Hit rule: 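Active means the replicate-mean z-score lies beyond plus or minus 2, in either direction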
# Meaning of the calls: active = changed p65 translocation (either direction); inactive = no clear change
# Shown is a random part of about 3,800 deposited reagents. 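Calls cover raised and lowered translocation; gene median uses one vendor's three siRNAs; qiagen siRNAs acted more weakly than ambion siRNAs.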 A number with no mark means an inactive call. The numbers tell different reagents against one gene apart.
gene symbol,reagent,siRNA vendor or control pool,"p65 translocation z-score, replicate mean","p65 translocation z-score, replicate 1","p65 translocation z-score, replicate 2","gene median z-score, per vendor"
Arhgef1,1,ambion single siRNA,-0.153,-0.0256,-0.28,-0.766
Arhgef1,2,ambion single siRNA,-1.35,-0.766,-1.94,-0.766
Arhgef1,3,ambion single siRNA,-2.87 (active),-2.87,,-0.766
Arhgef1,4,qiagen single siRNA,1.1,0.586,1.61,-0.158
Arhgef1,5,qiagen single siRNA,-0.389,-0.337,-0.441,-0.158
Arhgef1,6,qiagen single siRNA,-1.23,0.0208,-2.48,-0.158
Pole3,1,ambion single siRNA,0.48,1.75,-0.79,-1.72
Pole3,2,ambion single siRNA,-2.13 (active),-1.43,-2.83,-1.72
Pole3,3,ambion single siRNA,-2.46 (active),-2.92,-2.01,-1.72
Pole3,4,qiagen single siRNA,0.604,0.432,0.776,0.464
Pole3,5,qiagen single siRNA,1.35,-0.988,3.69,0.464
Pole3,6,qiagen single siRNA,-0.546,-1.59,0.495,0.464

Hits, of those listed so far:
gene symbol,reagent,siRNA vendor or control pool,"p65 translocation z-score, replicate mean","p65 translocation z-score, replicate 1","p65 translocation z-score, replicate 2","gene median z-score, per vendor"
Arhgef1,3,ambion single siRNA,-2.87 (active),-2.87,,-0.766
Pole3,2,ambion single siRNA,-2.13 (active),-1.43,-2.83,-1.72
Pole3,3,ambion single siRNA,-2.46 (active),-2.92,-2.01,-1.72

Additional records follow.
gene symbol,reagent,siRNA vendor or control pool,"p65 translocation z-score, replicate mean","p65 translocation z-score, replicate 1","p65 translocation z-score, replicate 2","gene median z-score, per vendor"
Inppl1,1,ambion single siRNA,0.966,1.72,0.216,0.153
Inppl1,2,ambion single siRNA,0.648,0.0902,1.21,0.153
Inppl1,3,ambion single siRNA,-3.32 (active),-6.38,-0.257,0.153
Inppl1,4,qiagen single siRNA,3.89 (active),2.7,5.08,0.589
Inppl1,5,qiagen single siRNA,0.461,0.333,0.589,0.589
Inppl1,6,qiagen single siRNA,0.108,0.108,,0.589
Ppp1r3c,1,ambion single siRNA,2.59 (active),3.59,1.58,0.506
Ppp1r3c,2,ambion single siRNA,-1.12,-0.566,-1.68,0.506
Ppp1r3c,3,ambion single siRNA,-0.0805,1.62,-1.79,0.506
Ppp1r3c,4,qiagen single siRNA,1.59,1.77,1.41,1.7
Ppp1r3c,5,qiagen single siRNA,1.84,1.61,2.06,1.7
Ppp1r3c,6,qiagen single siRNA,2.05 (active),2.48,1.63,1.7
